From US20220025331A1, “METHODS AND SYSTEMS FOR IMPROVING CELLS FOR USE IN THERAPY” (priority 2017, published 2022) come the findings set out here.

In one series the test system is P3R foAC neocartilage. In words: Phase 2: cytochalasin D and hyaluronidase treatment of P3R (passaged, redifferentiated) neocartilage. It counts as cell-based, sheep. To be noted: FIG. 8. As for the experimental part:
(§1) Chondrocyte Isolation: Fetal ovine articular chondrocytes (foACs) were harvested from the patellofemoral surfaces of 120-day gestation Dorper cross sheep obtained as medical waste (UC Davis School of Veterinary Medicine). Cartilage from the whole surface of both condyles and the trochlear groove was minced into approximately 1 mm^3 pieces, then washed and centrifuged (500 G for 5 minutes) three times with Dulbecco's Modified Eagle Medium containing 4.5 g/L glucose and GlutaMAX (DMEM; Gibco) and 2% (v/v) penicillin/streptomycin/fungizone (PSF; Lonza). The tissue was digested in 0.2% (w/v) collagenase type II (Worthington) in DMEM containing 3% (v/v) fetal bovine serum (FBS; Atlanta Biologicals) for 18 hours at 37° C. with gentle rocking. […]
(§2) Chondrocyte Expansion and Redifferentiation: Previously frozen P0 foACs were seeded in T-225 flasks at 1.5×10^4 cells/cm^2 and expanded in chemically defined chondrogenic medium (CHG medium) (DMEM containing 1% PSF, 1% ITS+ premix (BD Biosciences), 1% non-essential amino acids (Gibco), 100 nM dexamethasone (Sigma), 50 mg/mL ascorbate-2-phosphate (Sigma), 40 g/mL L-proline (Sigma), and […] sodium pyruvate (Sigma)) with 2% FBS and chondrogenically tuned TFP supplementation (1 ng/mL TGF-μ1, 5 ng/mL bFGF, 10 ng/mL PDGF; al from PeproTech). […] Following dissociation of the aggregates, cells were filtered through a 70 μm cell strainer and counted. […]

Another series has as its system P3 foAC neocartilage. In words: Phase 2: cytochalasin D and hyaluronidase treatment of P3 (passaged, not redifferentiated) neocartilage. It counts as cell-based, sheep. Conditions: FIG. 12. How it is done:
as §1, §2

As to hyaluronidase, the construct morphology result in the series on P3R foAC neocartilage is listed as “formation of a diffuse void region in the center of the constructs”; with P3 foAC neocartilage it was “rounded neocartilage with a diffuse void space in the center of the construct”.
